{
  "source": "the supplement of paper PMC11150407",
  "note": "The campaign covered roughly 2,100 compounds. About 180 (8.6%) showed an effect of 50% or more. This is one part of the list.",
  "data": [
    {"test_system": "MOLM1 and UCSD/AML1 (averaged)", "assay": "cell viability relative to DMSO control (POC); higher = less growth inhibition", "conditions": "1 µM; 72 h", "description": "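Primary viability screen in the 3q26 EVI1-high AML cell lines MOLM1 and UCSD/AML1 (1.5e3 cells/well, 384-well), compounds at 1 uM for 72 h. ATP CellTiter-Glo read-out given as percent of viable cells over DMSO control (POC), averaged over duplicates. DMSO was the negative control and 5 uM etoposide the positive control. This mapping covers the MicroSource Spectrum and Selleck anticancer libraries (drug names).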", "units": {"cell viability": "%"}, "values": [
      {"compound": "CCCCCCCCc1ccc(CCC(N)(CO)CO)cc1", "note": "[Fingolimod (FTY720)]", "cell viability": 76.7},
      {"compound": "CC(=O)OCC1=C(C(=O)O)N2C(=O)[C@@H](NC(=O)CSc3ccncc3)[C@H]2SC1", "cell viability": 101},
      {"compound": "CN(C)[C@@H]1C(O)=C(C(N)=O)C(=O)[C@@]2(O)C(O)=C3C(=O)c4c(O)ccc(Cl)c4[C@@](C)(O)[C@H]3C[C@@H]12", "cell viability": 106},
      {"compound": "O=C1OC2(c3ccc(O)cc3Oc3cc(O)ccc32)c2ccccc21", "cell viability": 96.8},
      {"compound": "Cc1cccc(CN2CCN(C(c3ccccc3)c3ccc(Cl)cc3)CC2)c1", "note": "(stereo not given)", "cell viability": 101},
      {"compound": "COc1cnc(NS(=O)(=O)c2ccc(N)cc2)nc1", "cell viability": 100},
      {"compound": "O=C(O)CCC(=O)Nc1ccc(S(=O)(=O)Nc2nccs2)cc1", "cell viability": 113},
      {"compound": "O=NN(CCCl)C(=O)NC1CCCCC1", "note": "[Lomustine (CeeNU)]", "cell viability": 94.3},
      {"compound": "CCOC(=O)C1=C[C@]2(CC)CCCN3CCc4c(n1c1ccccc41)[C@@H]32", "note": "[Vinpocetine (Cavinton)]", "cell viability": 108},
      {"compound": "CC(=O)OCC(=O)[C@@]1(O)CC[C@H]2[C@@H]3C[C@H](C)C4=CC(=O)C=C[C@]4(C)[C@H]3[C@@H](O)C[C@@]21C", "note": "[6alpha-METHYLPREDNISOLONE ACETATE]", "cell viability": 65},
      {"compound": "COC(=O)C[C@H]1C(C)(C)[C@@H](O)[C@@H]2CC3=C4CC(O)O[C@@H](c5ccoc5)[C@]4(C)CCC3[C@@]1(C)C2=O", "note": "(stereo partly drawn) [3,16-DIDEOXYMEXICANOLIDE-3beta-DIOL]", "cell viability": 86.1},
      {"compound": "COc1cc(Nc2ncc(F)c(Nc3ccc4c(n3)N(COP(=O)(O)O)C(=O)C(C)(C)O4)n2)cc(OC)c1OC", "cell viability": 58.3},
      {"compound": "COc1ccc(-c2cc(=O)c3c(O)cc(O[C@@H]4O[C@H](CO[C@@H]5O[C@@H](C)[C@H](O)[C@@H](O)[C@H]5O)[C@@H](O)[C@H](O)[C@H]4O)cc3o2)cc1O", "cell viability": 96.4},
      {"compound": "O=c1c2cc(O)c(O)cc2oc2cc(O)c([C@@H]3O[C@H](CO)[C@@H](O)[C@H](O)[C@H]3O)c(O)c12", "cell viability": 96.4},
      {"compound": "C=C1C[C@]23C[C@@]1(O)CC[C@H]2[C@@]12C=C[C@H](O)[C@@](C)(C(=O)O1)[C@H]2[C@@H]3C(=O)O", "cell viability": 100},
      {"compound": "Cc1nnc(C(C)C)n1C1C[C@H]2CC[C@@H](C1)N2CC[C@H](NC(=O)C1CCC(F)(F)CC1)c1ccccc1", "note": "(stereo in doubt) [Maraviroc]", "cell viability": 96.2},
      {"compound": "CCC(CC)CC1(C(=O)Nc2ccccc2SC(=O)C(C)C)CCCCC1", "note": "[Dalcetrapib?JTT-705?]", "cell viability": 90.1},
      {"compound": "CN1[C@@H](CC(=O)c2ccccc2)CCC[C@H]1C[C@H](O)c1ccccc1", "cell viability": 105},
      {"compound": "COc1cc(C)c(C(=O)Oc2cc(C)c(C(=O)O)c(O)c2C)c(O)c1C=O", "cell viability": 91.2},
      {"compound": "Cn1cc(-c2ccc3nnc(C(F)(F)c4ccc5ncccc5c4)n3n2)cn1", "cell viability": 101},
      {"compound": "c1ccc2[nH]c(-c3cscn3)nc2c1", "cell viability": 119},
      {"compound": "OC[C@@H](O)[C@@H](O[C@@H]1O[C@H](CO)[C@H](O)[C@H](O)[C@H]1O)[C@H](O)[C@@H](O)CO", "cell viability": 98.5},
      {"compound": "NC(=O)NC(=O)Cc1ccccc1", "cell viability": 107},
      {"compound": "COC1=C2C[C@@H](C)C[C@H](OC)[C@H](O)[C@@H](C)/C=C(\\C)[C@H](OC(N)=O)[C@@H](OC)/C=C\\C=C(/C)C(=O)NC(=CC1=O)C2=O", "note": "[Geldanamycin]", "cell viability": 0.865},
      {"compound": "CNCCC(Oc1ccc(C(F)(F)F)cc1)c1ccccc1", "note": "(stereo not given)", "cell viability": 107},
      {"compound": "C=C1C(=O)O[C@@H]2C[C@@]3(C)CCC[C@H](C)C3=C[C@H]12", "cell viability": 74},
      {"compound": "CCCCNC(=O)NS(=O)(=O)c1ccc(C)cc1", "cell viability": 105},
      {"compound": "CCCS(=O)(=O)Nc1ccc(F)c(C(=O)c2c[nH]c3ncc(-c4ccc(Cl)cc4)cc23)c1F", "note": "[Vemurafenib (PLX4032)]", "cell viability": 114},
      {"compound": "COC(=O)c1c(C)cc(O)cc1O", "cell viability": 98.5},
      {"compound": "CC(=O)[C@H]1CC[C@H]2[C@@H]3C[C@H](C)C4=CC(=O)CC[C@]4(C)[C@H]3[C@@H](O)C[C@]12C", "cell viability": 85},
      {"compound": "O=S(=O)(O)CCS", "cell viability": 104},
      {"compound": "O=S(=O)(O)CCS", "note": "[Mesna (Uromitexan, Mesnex)]", "cell viability": 90.7},
      {"compound": "CCn1cc(C(=O)O)c(=O)c2cnc(N3CCCC3)nc21", "cell viability": 98},
      {"compound": "CCCCCCCCCCCCC[N+](C)(C)Cc1ccccc1", "cell viability": 25.7},
      {"compound": "CC(C)(C)NC[C@H](O)c1ccc(O)c(CO)c1", "cell viability": 89.2},
      {"compound": "COC(=O)C[C@H]1C(C)(C)C(=O)[C@@H]2CC3=C4CC(=O)O[C@@H](c5ccoc5)[C@]4(C)CC[C@@H]3[C@@]1(C)C2=O", "cell viability": 99.2},
      {"compound": "COc1ccc(C(=O)CC(=O)O)c2c1C=CC(C)(C)O2", "cell viability": 99.5},
      {"compound": "CC(C)=CCC[C@](C)(O)C1CC=C(C)CC1", "note": "(stereo not given in full)", "cell viability": 105},
      {"compound": "CC1(C)NC(=O)N(c2ccc([N+](=O)[O-])c(C(F)(F)F)c2)C1=O", "cell viability": 110},
      {"compound": "CN(C)Cc1ccc(-c2nc3cccc4c3n2CCNC4=O)cc1", "cell viability": 100},
      {"compound": "Cc1[nH]c(/C=C2\\C(=O)Nc3ccc(S(=O)(=O)N(C)c4cccc(Cl)c4)cc32)c(C)c1C(=O)N1CCN(C)CC1", "cell viability": 62.8},
      {"compound": "CCCCCCc1ccc(O)cc1O", "cell viability": 98.6},
      {"compound": "COC(=O)[C@@H]1[C@H]2C[C@H]3c4[nH]c5ccccc5c4CCN3C[C@@H]2CC[C@@H]1O", "cell viability": 101},
      {"compound": "C=C(C)[C@@H]1CC=C(C(=O)O)CC1", "cell viability": 107},
      {"compound": "C[C@]12C=CC(=O)C=C1CC[C@@H]1[C@@H]2[C@@H](O)C[C@@]2(C)[C@H]1CC[C@]2(O)C(=O)COC(=O)CCC(=O)O", "cell viability": 77.2},
      {"compound": "CCCCOc1cc(C(=O)NCCN(CC)CC)c2ccccc2n1", "cell viability": 100},
      {"compound": "O=C1CCc2cc(OCCCCc3nnnn3C3CCCCC3)ccc2N1", "cell viability": 91.4},
      {"compound": "CCS(=O)(=O)CCn1c([N+](=O)[O-])cnc1C", "cell viability": 99.5},
      {"compound": "C[C@@]12C[C@@]3(O)O[C@@H](O1)[C@]1(COC(=O)c4ccccc4)[C@H]3C[C@@]12O[C@@H]1O[C@H](CO)[C@@H](O)[C@H](O)[C@H]1O", "cell viability": 108},
      {"compound": "Sc1nc2ccccc2s1", "cell viability": 115},
      {"compound": "COc1ccc2cc1Oc1ccc(cc1)C[C@H]1c3cc(c(OC)cc3CCN1C)Oc1c(OC)c(OC)cc3c1[C@H](C2)N(C)CC3", "cell viability": 81.7},
      {"compound": "CN(C)CCOC(=O)COc1ccc(Cl)cc1", "cell viability": 111},
      {"compound": "O=C(OCc1ccccc1)c1ccccc1", "cell viability": 99.3},
      {"compound": "OC(CCN1CCCCC1)(c1ccccc1)C1CCCCC1", "note": "(stereo not given)", "cell viability": 94},
      {"compound": "N=C(N)N/N=C/c1c(Cl)cccc1Cl", "cell viability": 101}
    ]}
  ]
}
